This note sets out measurements from publication PMC3475652.

By UniProt entry, the sequences of proteins in these tests, tags left out. Residues count along the entry.
UniProt P03070, residues 1-350: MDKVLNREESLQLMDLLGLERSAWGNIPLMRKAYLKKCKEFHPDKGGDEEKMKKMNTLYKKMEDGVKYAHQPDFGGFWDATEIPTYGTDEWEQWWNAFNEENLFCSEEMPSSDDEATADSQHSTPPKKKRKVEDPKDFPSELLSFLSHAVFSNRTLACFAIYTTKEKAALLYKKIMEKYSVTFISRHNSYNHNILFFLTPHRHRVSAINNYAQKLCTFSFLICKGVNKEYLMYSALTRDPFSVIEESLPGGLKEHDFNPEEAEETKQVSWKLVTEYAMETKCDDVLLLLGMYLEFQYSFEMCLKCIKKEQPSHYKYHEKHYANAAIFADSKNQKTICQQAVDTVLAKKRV

No constants are given. Whether binding was seen depends on the method and setting. Binding seen in cells or lysates may run through a third protein. Here binding means that the protein was enriched with, or labelled near, the bait; the list need not be complete.

This test concerns the target SV40 large T antigen residues 1 to 350 (T8 fragment), N-terminal HA and FLAG tags (SV40) (UniProt P03070). Kind of test: affinity purification with mass spectrometry; affinity purification of LT constructs with iTRAQ stable isotope labeling; enrichment relative to the negative control.

B1: p107 (RBL1) (protein, UniProt P28749 1-1068)
chain: MFEDKPHAEGAAVVAAAGEALQALCQELNLDEGSAAEALDDFTAIRGNYSLEGEVTHWLACSLYVACRKSIIPTVGKGIMEGNCVSLTRILRSAKLSLIQFFSKMKKWMDMSNLPQEFRERIERLERNFEVSTVIFKKYEPIFLDIFQNPYEEPPKLPRSRKQRRIPCSVKDLFNFCWTLFVYTKGNFRMIGDDLVNSYHLLLCCLDLIFANAIMCPNRQDLLNPSFKGLPSDFHTADFTASEEPPCIIAVLCELHDGLLVEAKGIKEHYFKPYISKLFDRKILKGECLLDLSSFTDNSKAVNKEYEEYVLTVGDFDERIFLGADAEEEIGTPRKFTRDTPLGKLTAQANVEYNLQQHFEKKRSFAPSTPLTGRRYLREKEAVITPVASATQSVSRLQSIVAGLKNAPSDQLINIFESCVRNPVENIMKILKGIGETFCQHYTQSTDEQPGSHIDFAVNRLKLAEILYYKILETVMVQETRRLHGMDMSVLLEQDIFHRSLMACCLEIVLFAYSSPRTFPWIIEVLNLQPFYFYKVIEVVIRSEEGLSRDMVKHLNSIEEQILESLAWSHDSALWEALQVSANKVPTCEEVIFPNNFETGNGGNVQGHLPLMPMSPLMHPRVKEVRTDSGSLRRDMQPLSPISVHERYSSPTAGSAKRRLFGEDPPKEMLMDKIITEGTKLKIAPSSSITAENVSILPGQTLLTMATAPVTGTTGHKVTIPLHGVANDAGEITLIPLSMNTNQESKVKSPVSLTAHSLIGASPKQTNLTKAQEVHSTGINRPKRTGSLALFYRKVYHLASVRLRDLCLKLDVSNELRRKIWTCFEFTLVHCPDLMKDRHLDQLLLCAFYIMAKVTKEERTFQEIMKSYRNQPQANSHVYRSVLLKSIPREVVAYNKNINDDFEMIDCDLEDATKTPDCSSGPVKEERGDLIKFYNTIYVGRVKSFALKYDLANQDHMMDAPPLSPFPHIKQQPGSPRRISQQHSIYISPHKNGSGLTPRSALLYKFNGSPSKSLKDINNMIRQGEQRTKKRVIAIDSDAESPAKRVCQENDDVLLKRLQDVVSERANH
Turning to B1, the binding result is “binds”.
